{
  "source": "patent US6503749B2",
  "about": "(Aventis Pharma S.A., priority 1998, dated 2003)",
  "key": {"[1]": {"tested_on": "TGY186/pTG10435", "assay": "Bioconversion of pregnenolone or progesterone by strain expressing bovine P45017α", "type": "cell-based, S. cerevisiae", "settings": "48 hours at 28° C."}, "[2]": {"tested_on": "TGY158/pTG10862", "assay": "Bioconversion of pregnenolone by strain expressing human 3β-HSD", "type": "cell-based, S. cerevisiae", "settings": "Strain TGY15B, plasmid pTG10862, 100 μg/ml pregnenolone, 24 h at 28° C., 3 clones"}},
  "data": [
    {"molecule": "CC(=O)[C@@]1(O)CC[C@H]2[C@@H]3CC=C4C[C@@H](O)CC[C@]4(C)[C@H]3CC[C@@]21C", "note": "[17α-OH pregnenolone, 17α-hydroxypregnenolone]", "values": [
      {"measurement": "Steroid measured by RP-HPLC after growth and bioconversion", "setting": "[1]; Substrate: Pregnenolone", "result": 42.0, "unit": "µg/mL"}
    ]},
    {"molecule": "CC(=O)[C@H]1CC[C@H]2[C@@H]3CC=C4C[C@@H](O)CC[C@]4(C)[C@H]3CC[C@]12C", "note": "[Pregnenolone]", "values": [
      {"measurement": "Steroid measured by RP-HPLC after growth and bioconversion", "setting": "[1]; Substrate: Pregnenolone", "result": 67.1, "unit": "µg/mL"},
      {"measurement": "Steroid measured by RP-HPLC after growth and bioconversion", "setting": "[2]", "result": 94, "unit": "µg/mL"},
      {"measurement": "Steroid measured by RP-HPLC after growth and bioconversion", "setting": "[2]; listed as pregnenolone", "result": "recovered almost quantitatively"}
    ]},
    {"molecule": "CC(=O)[C@H]1CC[C@H]2[C@@H]3CCC4=CC(=O)CC[C@]4(C)[C@H]3CC[C@]12C", "note": "[Progesterone]", "values": [
      {"measurement": "Steroid measured by RP-HPLC after growth and bioconversion", "setting": "[1]; Substrate: Progesterone", "result": 41.4, "unit": "µg/mL"},
      {"measurement": "Steroid measured by RP-HPLC after growth and bioconversion", "setting": "[2]", "result": 15.2, "unit": "µg/mL"}
    ]}
  ]
}
